From patent US20230357373A1, “METHODS AND COMPOSITIONS FOR […] TREATING FIBROSIS” (Mie University, priority 2019, published 2023)

Assay: Competitive enzyme immune assay of corisin in bronchoalveolar lavage fluid
Set-up: species or system human
Settings: IPF patients

In the case of “IVMPESSGNPNAVNPAGYR (listed as Staphylococcus cohnii) [corisin, peptide of 19 amino acid residues, segment of transglycosylase 351 IsaA of Staphylococcus nepalensis strain CNDG]”, the “level of corisin in bronchoalveolar lavage fluid, females” value (females) is reported as 58.8 ± 10.7 µg/mL and the “level of corisin in bronchoalveolar lavage fluid, males” value (males) is reported as 50.6 ± 4.9 µg/mL.
